# Screening data, single-dose tests

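Growth of Mycobacterium tuberculosis over 4 days (cholesterol / DPPC medium with tyloxapol); the read-out is not stated. Tested at 500 µM. The record gives no direction; compounds that gave an IC50 in retests scored well above the rest, so higher reads as more growth inhibition. Size under these conditions: about 18,000 compounds, about 900 of them at 50% or above in at least one test.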

Each number is a percent effect as filed.
The controls that fix the scale are not given in the record; negative values are as filed.
Compounds were drawn at random from those tested, without regard to their results.

compound	percent effect
N#CC1(CO)CCN(Cc2ccccc2)CC1	-3.43
CC(C)C(=O)Nc1cccc(CN)c1	-6.487
CC(NS(C)(=O)=O)C(=O)NC1Cc2ccccc2C1 (stereo not drawn)	-0.02781
N#Cc1c(NC(=O)c2ccncc2)sc2c1CCC2	-1.011
Cc1cc(CN2CCC[C@H]2C(=O)N2CCOCC2)on1	-3.122
CSCC(=O)N1CC(C(N)=O)Oc2ccccc21 (stereo not drawn)	-7.645
CN(C)c1cc(CNC(=O)c2ccc(Br)o2)ccn1	40.49
CN1CCN(C2CNC2)CC1	-4.254
CC(Cn1cccn1)NC(=O)CCc1ccc(F)cc1 (stereo not drawn)	19.7
CN(Cc1cnccn1)C(=O)[C@H]1CCC[C@H](O)C1	4.607
CN1CCN(c2cc(C#N)ccn2)CC1	10.81
CCN1CCN(c2ccc(NC(C)=O)cc2Cl)CC1	23.34
COCC(C)NCc1ccccc1CN1CCCC1=O (stereo not drawn)	11.97
CCCn1nnnc1CN(C)C(C)(C)C(=O)OCC	5.623
CN(C)C1CCN(S(=O)(=O)c2ncn(C)c2Cl)CC1	-6.163
O=C(COc1ccc(F)cc1)NC1CC1	36.14
c1cncc(CCNCc2cccc3c2OCCO3)c1	16.47
CCN(CC)C(=O)c1cnn(C)c1-n1cccc1	8.577
c1ccc2c(CC3COCCN3)c[nH]c2c1 (stereo not drawn)	3.144
Cc1cc(=O)cc(C(=O)NCCC(C)n2ccnc2)o1 (stereo not drawn)	-7.386
CC1c2ccsc2CCN1C(=O)c1ccn(C)c(=O)c1 (stereo not drawn)	13.95
O=C(CN1CCNCC1)NCCSc1ccc(Cl)cc1	60.84
Cc1[nH]nc(C(=O)Nc2ccccc2)c1N	-2.812
CC(C)N(C)C(=O)Nc1cccnc1OCC(F)F	3.557
CN1Cc2cccn2CC1CNC(=O)c1cccn1C (stereo not drawn)	-0.9721
O=C(CN1CCCC1)NCCc1nc(C2CC2)no1	7.515
Cc1ccc(CN2CCCC(O)(CO)CC2)cc1C (stereo not drawn)	-8.223
CC(C)CC(C)Oc1cc(CN)ccn1 (stereo not drawn)	51.12
CC(=O)NCCCOC(=O)c1csc(C)n1	-7.956
CC(=O)N1CCC(C(=O)NCCc2sc(C)nc2C)C1 (stereo not drawn)	-0.5551
CCCc1ccc(CN2CCC(NC(C)=O)C2)o1 (stereo not drawn)	8.551
CCOc1ncccc1C(=O)N1CCCN(C)CC1	0.6863
CN(Cc1cccnc1)C(=O)c1cccc(Cl)c1	28.05
Cn1cc(NC(=O)CCc2ccco2)c(=O)n(C)c1=O	-8.221
CSc1nc(C)cc(=O)[nH]1	-14.55
CC1CCCN(C(=O)c2ccc3nnnn3c2)C1 (stereo not drawn)	-3.184
Cc1ccccc1Oc1ccnc(CN)c1	-14.5
CCCS(=O)(=O)NCCN1CCOC(C)(C)C1	-5.497
Cc1ccccc1NC(=O)N1CCN(CC(N)=O)CC1	2.988
Cc1nn(CCC#N)c(C)c1Cl	5.996
NCC(CO)Cc1c(F)cccc1Cl (stereo not drawn)	10.17
CC[C@H](N)C(=O)N1CCN(C)C2(CCN(C)CC2)C1	6.99
CC(c1nc(-c2ccccn2)no1)N1CCSCC1 (stereo not drawn)	59.17
CC(=O)NCCNC(=O)NC(C)Cc1ccccc1Br (stereo not drawn)	-6.644
Cc1cc(C(=O)NCCNc2cccnc2)cnc1C	-2.732
NC(=O)Cc1n[nH]c(-c2cccnc2)n1	0.4647
O=C(NC1CC1)[C@@H]1CCCN1C(=O)c1ccccc1	8.012
CC1(C)CN(c2ncccc2C#N)CCO1	2.277
CN(Cc1nc2ccccc2[nH]1)C(=O)c1cnc[nH]1	2.881
NC(=O)N1CCC(C(=O)Nc2ccccn2)CC1	14.83
CC(C)NS(=O)(=O)C1CCNC1 (stereo not drawn)	-1.355
CC1(C)C(=O)NCCN1C(=O)c1cccc2cc[nH]c12	12.09
NC(=O)Nc1cccc(C(=O)Nc2ccc(Cl)cn2)c1	88.87
Cn1ncc(NC(=O)CCn2cc(Br)cn2)c1C(N)=O	17.82
Cc1noc(CNC(=O)c2cccnc2N(C)C)n1	5.499
O=C(Nc1ncccc1O)c1sccc1OC(F)F	-8.891
CSc1cc(NC(=O)NCCn2ccnc2)ccn1	7.597
NCC(CO)Cc1ccc(F)c(Br)c1 (stereo not drawn)	38.36
CC(=O)NC(CC(=O)N1CCCC1)c1ccc(Cl)cc1 (stereo not drawn)	14.06
Cc1ccc(OCC(C)NC(=O)CSCC(N)=O)cc1 (stereo not drawn)	13.13
FC(F)(F)c1c[nH]c(C2CCCNC2)n1 (stereo not drawn)	6.457
CSc1cncc(NCCOc2cccnc2)n1	25.72
C=C(C(=O)OC)C(O)c1ccc(F)c(F)c1 (stereo not drawn)	43.8
CNC(=O)CN1CCCC(CO)(CCCOC)C1 (stereo not drawn)	0.8566
CC(C)C(Nc1cnn(C)c(=O)c1Cl)C(N)=O (stereo not drawn)	14.71
CC(=O)NC1(c2nc(C)cs2)CCNC1 (stereo not drawn)	-45.29
CCSCC(=O)NC(C)c1cn2ccsc2n1 (stereo not drawn)	19.08
CCOC(=O)c1sc(N)c(C#N)c1CN1CCOCC1	2.935
Cc1ncn(CC(=O)N2CC[C@](C)(O)[C@H](C)C2)c1C	-2.955
O=C1C(NCc2cscn2)CCCN1c1cccnc1 (stereo not drawn)	3.362
CCN1CCCCC1c1nc(-c2ccccn2)no1 (stereo not drawn)	8.484
Cc1nnc(SC[C@H](O)COCc2ccccc2)s1	70.86
CC(C)(C)C(O)CNC(=O)Nc1nncs1 (stereo not drawn)	-7.11
O=C(CC1COCCN1CC1CCC1)c1ccco1 (stereo not drawn)	32.54
CC(O)c1cccc(OCCC2OCCO2)c1 (stereo not drawn)	41.14

Data taken from ChEMBL document CHEMBL3988442, “University of Dundee, Small-Polar-MMV Screening Library” (2021).